Assay results published in patent EP1746106A2.
No constants are given. Whether binding was seen depends on the method and setting. In cells and extracts the contact can be indirect. Some results given as binding are weak or reduced against the parent protein; the word gives no strength. Where a sequence is shown, tags or fusion partners need not be part of it.

Protein sequences, listed by entry. Tags and fused reporters are not part of them. Residues count along the entry.
UniProt Q9D777, residues 96-241: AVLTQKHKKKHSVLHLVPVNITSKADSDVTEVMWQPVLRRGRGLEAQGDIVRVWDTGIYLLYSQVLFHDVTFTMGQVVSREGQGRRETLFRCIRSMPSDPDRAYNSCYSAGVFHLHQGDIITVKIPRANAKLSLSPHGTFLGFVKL

Columns and labels:
[1] = biological target: FLAG-tagged soluble extracellular domain of murine APRIL (PS784, also called LT032) (murine) (UniProt Q9D777); assay: co-immunoprecipitation, Western blot (Figure 10C legend)
[2] = biological target: FLAG-tagged soluble extracellular domain of murine APRIL (PS784, also called LT032) (murine) (UniProt Q9D777); assay: co-immunoprecipitation with protein A-Sepharose, anti-FLAG M2 Western blot

B1: human TACI(1-160)-Ig fusion protein (Fc fusion, not shown: a dimerising Fc or GST)
chain: MSGLGRSRRGGRSRVDQEERFPQGLWTGVAMRSCPEEQYWDPLLGTCMSCKTICNHQSQRTCAAFCRSLSCRKEQGKFYDHLLRDCISCASICGQHPKQCAYFCENKLRSPVNLPPELRRQRSGEVENNSDNSGRYQGLEHRGSEASPALPGLKLSADQV
binding [1]: binds | binding [2]: binds
